Reference: PubChem BioAssay AID504795 (Drosophila RNAi Screening Center, 2011)

Test: 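Knock-downs causing abnormal branching, bundling, swelling or growth of cultured neurons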 (primary screen)
Cell system: primary Drosophila neurons and glia
Reagent: long dsRNA against Drosophila genes, 250 ng dsRNA per well
Duration: one week
Measured: 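GFP-labelled neurons and glia imaged live by automated microscope one week after 250 ng dsRNA per well; morphology scored by eye as descriptive phenotype terms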
This is not the whole library: the list holds selected reagents. 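Every listed dsRNA shows some phenotype; how reagents were selected for listing is not stated.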 A plus sign joins genes that one reagent is predicted to hit. Reagent sequences are not shown.

The opening 10 entries, ahead of the listing:
no.	predicted target	DRSC id	phenotype seen, replicate 1	phenotype seen, replicate 2
1	Cyp12a4 (Cytochrome P450 12a4)	DRSC16620	sheet-like cell extensions	
2	CG5131	DRSC02817	abnormal cell clusters	
3	Tailor	DRSC12526	sheet-like cell extensions	
4	RpL24-like (Ribosomal protein L24-like)	DRSC16111	abnormal cell clusters	
5	Hsp70Aa + Hsp70Bb + Hsp70Ba + 3 more	DRSC15380	too many neurite branches	
6	CG17127	DRSC02581	too many neurite branches	
7	CG5276	DRSC15759	axon bundles split apart	
8	Irbp (Inverted repeat-binding protein)	DRSC17007	abnormal cell clusters	
9	CG14673 (retired record)	DRSC12259	reduced axon outgrowth	
10	Gtpx	DRSC08221	too many neurite branches	

The listing, from the start:
no.	predicted target	DRSC id	phenotype seen, replicate 1	phenotype seen, replicate 2
1	Cyp12a4 (Cytochrome P450 12a4)	DRSC16620	sheet-like cell extensions	
2	CG5131	DRSC02817	abnormal cell clusters	
3	Tailor	DRSC12526	sheet-like cell extensions	
4	RpL24-like (Ribosomal protein L24-like)	DRSC16111	abnormal cell clusters	
5	Hsp70Aa + Hsp70Bb + Hsp70Ba + 3 more	DRSC15380	too many neurite branches	
6	CG17127	DRSC02581	too many neurite branches	
7	CG5276	DRSC15759	axon bundles split apart	
8	Irbp (Inverted repeat-binding protein)	DRSC17007	abnormal cell clusters	
9	CG14673 (retired record)	DRSC12259	reduced axon outgrowth	
10	Gtpx	DRSC08221	too many neurite branches	
11	Nup153 (Nucleoporin 153kD)	DRSC19904	axon bundles split apart	
12	CR18228 (pseudo)	DRSC15317	too many neurite branches	
13	Tektin-C (Tektin C)	DRSC09741	too many neurite branches	
14	Ask1 (Apoptotic signal-regulating kinase 1)	DRSC21697	fewer cells	
15	CG7550	DRSC10875	abnormal cell clusters	
16	CG11018	DRSC06024	axon bundles split apart	
17	CG14630	DRSC18653	sheet-like cell extensions	
18	CG34433	DRSC15077	sheet-like cell extensions	
19	FeCH (Ferrochelatase)	DRSC16948	too many neurite branches	
20	CG14995	DRSC08452	too many neurite branches	
21	CtsL3 (Cathepsin L3)	DRSC12171	axon bundles split apart	
22	CG6610	DRSC10674	axon bundles split apart	
23	CG8152	DRSC07083	fewer cells	
24	Dtwd2 + Obp84a	DRSC12603	axon bundles split apart	
25	CG6220	DRSC06969	axon bundles split apart	
26	CG7220	DRSC07018	abnormal cell clusters	
27	Cpr62Ba (Cuticular protein 62Ba)	DRSC08403	beaded; swollen axons	
28	Agpat2 (1-Acylglycerol-3-phosphate O-acyltransferase 2)	DRSC03532	axon bundles split apart	
29	CG10257	DRSC05985	axon bundles split apart	
30	eIF4E7 (eukaryotic translation initiation factor 4E7)	DRSC17782	sheet-like cell extensions	
31	disp (dispatched)	DRSC12376	too many neurite branches	
32	CG42531	DRSC05318	axon bundles split apart	
33	Ost48 (Oligosaccharyltransferase 48kD subunit)	DRSC18693	too many neurite branches	
34	COX6AL2 (Cytochrome c oxidase subunit 6A-like 2)	DRSC10082	abnormal cell clusters	
35	CG43078	DRSC21541	axon bundles split apart	
36	CG43078	DRSC22327	abnormal cell clusters	
37	Sam-S (S-adenosylmethionine Synthetase)	DRSC00758	reduced axon outgrowth	
38	Hus1-like	DRSC12353	too many neurite branches	
39	CG9649	DRSC16534	too many neurite branches	
40	CG6280	DRSC06972	fewer cells	
41	p38b (p38b MAP kinase)	DRSC03586	axon bundles split apart	
42	tst + CG10375	DRSC14237	more neurite growth	
43	wake (wide awake)	DRSC16149	abnormal cell clusters	
44	CG15109	DRSC06536	axon bundles split apart	
45	Phae1 (Phaedra 1)	DRSC02554	axon bundles split apart	
46	CG13723	DRSC10052	axon bundles split apart	too many neurite branches
47	COX7C (Cytochrome c oxidase subunit 7C)	DRSC06831	abnormal cell clusters	
48	orb2	DRSC10541	axon bundles split apart	
49	Lsm11	DRSC06238	fewer cells	
50	Slc25A46a	DRSC20125	axon bundles split apart	
51	ATPsyngamma (ATP synthase, gamma subunit)	DRSC14094	sheet-like cell extensions	
52	Vha14-2 (Vacuolar H[+] ATPase 14kD subunit 2)	DRSC12145	too many neurite branches	
53	HP1e (Heterochromatin Protein 1e)	DRSC16379	axon bundles split apart	
54	CG1542	DRSC15035	too many neurite branches	
55	CG33679	DRSC01436	axon bundles split apart	
56	fon (fondue)	DRSC02507	too many neurite branches	
57	CG12825	DRSC06174	too many neurite branches	
58	CG13088	DRSC02192	axon bundles split apart	
59	CG7650	DRSC10898	axon bundles split apart	
60	CG13044	DRSC09925	axon bundles split apart	
61	CG15536	DRSC15072	too many neurite branches	
62	CG6409	DRSC10630	too many neurite branches	
63	niki (nimA-like kinase)	DRSC14285	cell fragments present	
64	Teh2 (tipE homolog 2)	DRSC08458	too many neurite branches	
65	dally (division abnormally delayed)	DRSC08954	abnormal cell clusters	
66	cni (cornichon)	DRSC03512	cell fragments present	
67	CG3546	DRSC18308	axon bundles split apart	
68	Prosalpha4 (Proteasome alpha4 subunit)	DRSC20271	abnormal cell clusters	
69	Kank	DRSC05513	axon bundles split apart	
70	CG4653	DRSC19909	reduced axon outgrowth	
71	rno (rhinoceros)	DRSC08584	beaded; swollen axons	
72	CG5011	DRSC00039	abnormal cell clusters	
73	Ptp99A (Protein tyrosine phosphatase 99A)	DRSC14319	sheet-like cell extensions	
74	Ptp99A (Protein tyrosine phosphatase 99A)	DRSC14320	too many neurite branches	
75	Bap170 (Brahma associated protein 170kD)	DRSC21826	axon bundles split apart	
76	twr (twisted bristles roughened eye)	DRSC12491	beaded; swollen axons	
77	Nse4 (Non-SMC element 4)	DRSC02239	reduced axon outgrowth	
78	eIF3b (eukaryotic translation initiation factor 3 subunit b)	DRSC06900	reduced axon outgrowth	
79	CG33232 (retired record)	DRSC08495	reduced axon outgrowth	
80	CG33998	DRSC05747	axon bundles split apart	
81	SNCF (SoxNeuro Co-Factor)	DRSC10115	axon bundles split apart	abnormal cell clusters
82	CG33136	DRSC05744	abnormal cell clusters	
83	CG16739	DRSC06621	axon bundles split apart	
84	Nckx30C	DRSC02689	axon bundles split apart	
85	CG10298	DRSC12522	too many neurite branches	
86	Rpn5 (Regulatory particle non-ATPase 5)	DRSC12367	abnormal cell clusters	
87	SPR (Sex peptide receptor)	DRSC21557	axon bundles split apart	
88	tna (tonalli)	DRSC09053	axon bundles split apart	
89	Past1 (Putative Achaete Scute Target 1)	DRSC16784	axon bundles split apart	
90	Orai	DRSC05684	axon bundles split apart	
91	CG7907	DRSC16339	reduced axon outgrowth	
92	CG12824	DRSC06173	too many neurite branches	
93	mRpS7 (mitochondrial ribosomal protein S7)	DRSC02814	sheet-like cell extensions	
94	RpS17 (Ribosomal protein S17)	DRSC11271	axon bundles split apart	
95	Tango6 (Transport and Golgi organization 6)	DRSC02671	axon bundles split apart	
96	DnaJ-H (DnaJ homolog)	DRSC03273	reduced axon outgrowth	
97	ath (athos)	DRSC02788	cell fragments present	
98	c(2)M (crossover suppressor on 2 of Manheim)	DRSC01922	too many neurite branches	
99	CG42496 + Ppcdc	DRSC03886	abnormal cell clusters	
100	CG31612	DRSC03697	beaded; swollen axons	
101	CG7215 + Prx5	DRSC16214	too many neurite branches	
102	par-1	DRSC07660	axon bundles split apart	
103	CG7483	DRSC16249	reduced axon outgrowth	
104	ArfGAP1 (ADP-ribosylation factor GTPase activating protein 1)	DRSC11173	reduced axon outgrowth	
105	opm (opossum)	DRSC20141	axon bundles split apart	
106	CG3502	DRSC04381	abnormal cell clusters	
107	Srpk79D (Serine-arginine protein kinase at 79D)	DRSC11856	reduced axon outgrowth	
108	mTTF (mitochondrial transcription termination factor)	DRSC01909	axon bundles split apart	
109	CG34404	DRSC15335	reduced axon outgrowth	
